The other results are listed elsewhere or left out. Residues, ends and D or L forms follow the SMILES beside them. *: point of attachment. Cbz = O=C(OCc1ccccc1)*
Assays:
Experiment in all cases: log2 fold change, soluble protein after heating vs DMSO (PISA); higher = thermal stabilisation; K562 cells, 10 uM, 30 min; active = over 0.2 and 3.5 SD of the protein, either way, in both replicates (recomputed)
IRAK-1-4 Inhibitor I = compound: C1COCCN1CCN2C3=CC=CC=C3N=C2NC(=O)C4=CC(=CC=C4)[N+](=O)[O-] [IRAK-1-4 Inhibitor I]
How it was run: (§1)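 Quantification of soluble protein used TMTpro 16plex LC-MS/MS, with channel sums equalised. Samples were the supernatant after 21,000xg for 90 min of pooled aliquots from K562 cells (2×10^6 cells/mL) treated with 10 μM compound for 30 min, heated for 3 min over 48°C-58°C, and extracted in PBS with 0.5% NP-40 at 4°C. Values, from duplicates, describe thermal stability against control samples on a log2 fold-change scale.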

By UniProt entry, the sequences of proteins in these tests, tags left out. Where a name states a change or a piece, a line headed by the entry shows the natural chain unless it says otherwise.
UniProt Q10589, whole entry, looked up: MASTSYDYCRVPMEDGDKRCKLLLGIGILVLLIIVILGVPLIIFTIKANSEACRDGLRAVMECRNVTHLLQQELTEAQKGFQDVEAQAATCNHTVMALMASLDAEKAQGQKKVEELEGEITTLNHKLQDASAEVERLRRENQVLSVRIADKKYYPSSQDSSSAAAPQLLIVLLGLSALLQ
UniProt Q13895: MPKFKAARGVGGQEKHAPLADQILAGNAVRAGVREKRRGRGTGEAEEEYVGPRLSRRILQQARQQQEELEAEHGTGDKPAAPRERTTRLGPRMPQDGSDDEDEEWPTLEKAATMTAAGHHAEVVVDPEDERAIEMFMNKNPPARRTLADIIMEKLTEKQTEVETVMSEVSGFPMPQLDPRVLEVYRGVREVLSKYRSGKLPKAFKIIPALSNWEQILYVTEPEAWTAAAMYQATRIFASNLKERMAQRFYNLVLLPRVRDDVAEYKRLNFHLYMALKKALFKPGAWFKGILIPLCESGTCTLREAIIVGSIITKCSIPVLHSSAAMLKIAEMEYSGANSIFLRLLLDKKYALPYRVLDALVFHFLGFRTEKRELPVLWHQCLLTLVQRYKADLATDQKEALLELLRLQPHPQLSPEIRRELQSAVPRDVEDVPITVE
UniProt Q5JPI3: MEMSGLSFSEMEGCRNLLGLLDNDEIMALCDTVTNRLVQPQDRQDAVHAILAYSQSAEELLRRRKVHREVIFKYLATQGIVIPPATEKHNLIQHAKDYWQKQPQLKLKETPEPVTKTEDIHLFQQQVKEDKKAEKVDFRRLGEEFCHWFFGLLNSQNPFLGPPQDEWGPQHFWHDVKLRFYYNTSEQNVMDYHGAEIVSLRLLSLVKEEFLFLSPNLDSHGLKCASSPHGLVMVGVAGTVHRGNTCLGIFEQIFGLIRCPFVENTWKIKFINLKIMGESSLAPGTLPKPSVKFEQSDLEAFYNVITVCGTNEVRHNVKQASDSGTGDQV
UniProt P27708: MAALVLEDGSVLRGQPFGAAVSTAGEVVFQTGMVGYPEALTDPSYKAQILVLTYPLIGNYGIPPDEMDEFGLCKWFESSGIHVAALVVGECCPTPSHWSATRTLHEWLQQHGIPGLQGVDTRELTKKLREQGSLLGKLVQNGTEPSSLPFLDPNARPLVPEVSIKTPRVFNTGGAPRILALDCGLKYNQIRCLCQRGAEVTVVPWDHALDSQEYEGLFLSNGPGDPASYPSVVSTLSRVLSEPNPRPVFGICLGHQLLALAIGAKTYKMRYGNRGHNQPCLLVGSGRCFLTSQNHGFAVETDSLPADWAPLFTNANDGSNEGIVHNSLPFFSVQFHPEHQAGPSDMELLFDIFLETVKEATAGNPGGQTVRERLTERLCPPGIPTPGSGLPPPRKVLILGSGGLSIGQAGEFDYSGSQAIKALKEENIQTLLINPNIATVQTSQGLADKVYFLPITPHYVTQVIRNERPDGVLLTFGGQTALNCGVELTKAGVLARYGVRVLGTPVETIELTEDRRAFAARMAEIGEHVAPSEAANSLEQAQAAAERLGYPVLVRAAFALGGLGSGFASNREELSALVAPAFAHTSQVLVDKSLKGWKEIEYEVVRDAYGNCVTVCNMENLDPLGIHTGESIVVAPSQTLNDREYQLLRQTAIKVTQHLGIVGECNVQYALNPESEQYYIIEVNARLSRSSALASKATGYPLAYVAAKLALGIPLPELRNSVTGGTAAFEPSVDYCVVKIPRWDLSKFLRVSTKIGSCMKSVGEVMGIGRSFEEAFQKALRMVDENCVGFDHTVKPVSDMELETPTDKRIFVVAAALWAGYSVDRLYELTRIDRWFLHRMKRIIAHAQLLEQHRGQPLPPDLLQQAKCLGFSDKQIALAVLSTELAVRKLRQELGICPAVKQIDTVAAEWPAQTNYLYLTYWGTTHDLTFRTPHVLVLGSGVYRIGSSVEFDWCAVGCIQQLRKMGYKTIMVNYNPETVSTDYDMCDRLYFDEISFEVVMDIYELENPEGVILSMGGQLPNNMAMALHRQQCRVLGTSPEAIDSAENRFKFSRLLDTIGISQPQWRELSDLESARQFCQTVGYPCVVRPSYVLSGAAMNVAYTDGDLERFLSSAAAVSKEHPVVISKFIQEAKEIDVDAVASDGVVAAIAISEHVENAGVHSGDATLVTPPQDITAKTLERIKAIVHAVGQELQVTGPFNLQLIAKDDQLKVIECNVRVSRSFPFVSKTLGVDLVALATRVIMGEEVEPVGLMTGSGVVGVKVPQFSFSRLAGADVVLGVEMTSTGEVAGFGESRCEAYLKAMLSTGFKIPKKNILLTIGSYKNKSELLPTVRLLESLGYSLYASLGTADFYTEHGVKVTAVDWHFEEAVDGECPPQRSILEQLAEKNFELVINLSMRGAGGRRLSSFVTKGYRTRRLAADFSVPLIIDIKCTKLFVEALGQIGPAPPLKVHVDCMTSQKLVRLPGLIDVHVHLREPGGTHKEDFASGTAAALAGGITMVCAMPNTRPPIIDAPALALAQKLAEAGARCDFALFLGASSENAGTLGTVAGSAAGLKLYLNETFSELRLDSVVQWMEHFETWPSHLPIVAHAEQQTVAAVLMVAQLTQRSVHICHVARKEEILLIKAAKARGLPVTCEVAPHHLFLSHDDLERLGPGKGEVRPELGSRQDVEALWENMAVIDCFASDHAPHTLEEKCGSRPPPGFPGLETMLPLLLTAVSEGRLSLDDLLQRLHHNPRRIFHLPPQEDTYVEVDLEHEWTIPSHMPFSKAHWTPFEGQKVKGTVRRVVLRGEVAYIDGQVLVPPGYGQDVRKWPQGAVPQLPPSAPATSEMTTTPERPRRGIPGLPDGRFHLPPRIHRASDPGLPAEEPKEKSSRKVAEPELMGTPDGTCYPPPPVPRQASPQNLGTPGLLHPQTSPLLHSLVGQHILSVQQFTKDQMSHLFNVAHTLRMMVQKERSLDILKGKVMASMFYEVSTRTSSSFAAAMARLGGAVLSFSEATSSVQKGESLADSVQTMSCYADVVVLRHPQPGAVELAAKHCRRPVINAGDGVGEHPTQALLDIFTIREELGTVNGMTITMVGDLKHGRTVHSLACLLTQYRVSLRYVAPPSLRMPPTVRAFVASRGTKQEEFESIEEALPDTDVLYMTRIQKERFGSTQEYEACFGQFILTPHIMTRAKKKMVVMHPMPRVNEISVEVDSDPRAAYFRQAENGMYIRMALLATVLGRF
UniProt Q9H7E9: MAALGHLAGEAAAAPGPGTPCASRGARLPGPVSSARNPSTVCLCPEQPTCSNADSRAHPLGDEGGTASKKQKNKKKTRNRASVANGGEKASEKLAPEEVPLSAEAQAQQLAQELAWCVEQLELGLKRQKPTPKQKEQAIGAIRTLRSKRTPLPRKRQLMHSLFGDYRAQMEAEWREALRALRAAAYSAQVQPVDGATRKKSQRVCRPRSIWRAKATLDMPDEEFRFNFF
UniProt P00915: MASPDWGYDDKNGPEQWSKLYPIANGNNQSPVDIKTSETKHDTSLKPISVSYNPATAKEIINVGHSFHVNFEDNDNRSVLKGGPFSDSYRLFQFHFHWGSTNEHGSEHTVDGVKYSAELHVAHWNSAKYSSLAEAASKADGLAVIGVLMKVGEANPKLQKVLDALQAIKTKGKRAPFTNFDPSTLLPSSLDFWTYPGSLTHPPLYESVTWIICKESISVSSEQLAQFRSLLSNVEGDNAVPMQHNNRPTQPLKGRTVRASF
UniProt Q96LT7: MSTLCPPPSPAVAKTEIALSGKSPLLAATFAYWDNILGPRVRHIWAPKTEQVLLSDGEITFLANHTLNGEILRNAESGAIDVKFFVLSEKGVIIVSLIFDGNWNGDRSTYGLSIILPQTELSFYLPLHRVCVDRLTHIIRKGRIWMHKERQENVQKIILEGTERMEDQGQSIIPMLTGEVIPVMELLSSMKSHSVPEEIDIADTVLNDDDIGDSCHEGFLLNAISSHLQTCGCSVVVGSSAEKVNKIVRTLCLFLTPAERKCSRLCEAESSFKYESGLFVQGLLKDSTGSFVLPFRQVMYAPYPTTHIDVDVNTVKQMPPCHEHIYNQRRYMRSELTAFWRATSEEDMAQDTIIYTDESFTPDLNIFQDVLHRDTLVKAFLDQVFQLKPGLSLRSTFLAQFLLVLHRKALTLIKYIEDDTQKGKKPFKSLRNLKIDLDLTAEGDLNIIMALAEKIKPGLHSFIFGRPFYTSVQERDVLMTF
UniProt Q9H9S4: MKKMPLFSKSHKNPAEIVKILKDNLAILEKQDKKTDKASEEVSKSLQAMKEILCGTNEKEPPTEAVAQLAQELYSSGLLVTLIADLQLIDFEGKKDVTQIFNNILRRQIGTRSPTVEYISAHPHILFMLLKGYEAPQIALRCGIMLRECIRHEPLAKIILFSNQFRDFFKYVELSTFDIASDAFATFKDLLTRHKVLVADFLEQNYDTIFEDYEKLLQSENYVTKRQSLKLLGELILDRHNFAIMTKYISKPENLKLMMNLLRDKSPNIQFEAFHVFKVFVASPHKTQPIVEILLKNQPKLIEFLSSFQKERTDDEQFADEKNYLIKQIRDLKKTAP

ibrutinib = compound: C=CC(=O)N1CCC[C@@H](n2nc(-c3ccc(Oc4ccccc4)cc3)c3c(N)ncnc32)C1 [ibrutinib]
How it was run: as §1

[1] = compound: CC(=O)c1cnc2ccc(-c3cc(Cl)c(O)c(Cl)c3)nc2c1N[C@H]1CC[C@H](CN(C)C)CC1
How it was run: as §1

ralimetinib = compound: CC(C)(C)Cn1c(N)nc2ccc(-c3[nH]c(C(C)(C)C)nc3-c3ccc(F)cc3)nc21 [ralimetinib]
How it was run: as §1

[2] = compound: CC(C)(O)CC(=O)NCCn1ccc2ncnc(Nc3ccc(Oc4cccc(C(F)(F)F)c4)c(Cl)c3)c21
How it was run: as §1

[3] = compound: CC(C)C1=C2N=C(C=C(N2N=C1)NCC3=CC=CC=C3)NCCCCCCN
How it was run: as §1

[4] = compound: CC(C)C[C@@H](C=O)NC(=O)[C@H](CC(C)C)NC(=O)[C@H](CC(C)C)NC(=O)OCc1ccccc1
How it was run: as §1

pinometostat = compound: CC(C)N(C[C@H]1O[C@@H](n2cnc3c(N)ncnc32)[C@H](O)[C@@H]1O)[C@H]1C[C@@H](CCc2nc3cc(C(C)(C)C)ccc3[nH]2)C1 [pinometostat]
How it was run: as §1

[5] = compound: CC1=C(C2=C(C=C1)C(=O)C3=CC=CC=C3N2CCCN)C
How it was run: as §1

[6] = compound: CC1=C(C=C(C=C1)NC(=O)C2=CC(=CC=C2)C(C)(C)C#N)NC3=CC4=C(C=C3)N=CN(C4=O)C
How it was run: as §1

[7] = compound: CC1=C(C=C(C=C1)NC(=O)C2=CC(=CC=C2)N(C)C)NC(=O)C3=CC=C(C=C3)O
How it was run: as §1

[8] = compound: CC1=CC=C(C=C1)SC2=C3C=C(SC3=CN=C2)C(=O)N
How it was run: as §1

[9] = compound: CC1=NC(=CC=C1)C2=C(N=C(N2)C(C)(C)C)C3=CC4=NC=CN=C4C=C3
How it was run: as §1

Nexturastat A = compound: CCCCN(Cc1ccc(C(=O)NO)cc1)C(=O)Nc1ccccc1 [Nexturastat A]
How it was run: as §1

vemurafenib = compound: CCCS(=O)(=O)Nc1ccc(F)c(C(=O)c2c[nH]c3ncc(-c4ccc(Cl)cc4)cc23)c1F [vemurafenib]
How it was run: as §1

[10] = compound: CCCS(=O)(=O)Nc1ccc(F)c(C(=O)c2c[nH]c3ncc(Cl)cc23)c1F
How it was run: as §1

[11] = compound: CCCc1cc(C)[nH]c(=O)c1CNC(=O)c1cc(-c2ccnc(N3CCN(C)CC3)c2)cc2c1cnn2C(C)C
How it was run: as §1

givinostat = compound: CCN(CC)Cc1ccc2cc(COC(=O)Nc3ccc(C(=O)NO)cc3)ccc2c1 [givinostat]
How it was run: as §1

barasertib = compound: CCN(CCCOc1ccc2c(Nc3cc(CC(=O)Nc4cccc(F)c4)[nH]n3)ncnc2c1)CCOP(=O)(O)O [barasertib]
How it was run: as §1

[12] = compound: CC1=C(C(CC(=O)N1)C2=CC=C(C=C2)C(F)(F)F)C(=O)NC3=C(C=C4C(=C3)C=NN4)F
How it was run: as §1

Measured: log2 fold change

BST2 (UniProt Q10589)
inactive: IRAK-1-4 Inhibitor I -0.004 | ibrutinib 0 | [1] -0.109 | ralimetinib 0.033 | [2] 0.025 | [3] -0.108 | [4] 0.12 | pinometostat -0.006 | [5] 0.017 | [6] 0.059 | [7] 0.014 | [8] -0.003 | [9] -0.011 | Nexturastat A 0.023 | vemurafenib 0 | [10] -0.029 | [11] -0.095 | givinostat 0.053 | barasertib -0.097

BYSL (UniProt Q13895)
active: [5] -0.495
inactive: IRAK-1-4 Inhibitor I -0.115 | ibrutinib -0.054 | [1] 0.043 | ralimetinib 0.051 | [2] -0.11 | [3] -0.109 | [4] 0.092 | pinometostat 0.118 | [6] 0.04 | [7] -0.042 | [8] -0.01 | [9] 0.016 | Nexturastat A 0.14 | vemurafenib 0.079 | [10] 0.032 | [11] -0.024 | givinostat 0.167 | barasertib 0.014

C3orf38 (UniProt Q5JPI3)
inactive: IRAK-1-4 Inhibitor I -0.165 | ibrutinib -0.064 | [1] -0.072 | ralimetinib 0 | [2] -0.035 | [4] 0.077 | pinometostat -0.121 | [12] 0.02 | [5] -0.086 | [6] -0.135 | [7] -0.026 | [8] 0.004 | [9] 0.14 | Nexturastat A 0.033 | vemurafenib 0.113 | [10] 0.02 | [11] 0.026 | barasertib -0.312

CAD (UniProt P27708)
active: [1] -0.402 | [5] 0.272
inactive: IRAK-1-4 Inhibitor I -0.064 | ibrutinib 0.008 | ralimetinib -0.06 | [2] -0.168 | [3] 0.029 | [4] 0.021 | pinometostat 0.028 | [6] -0.047 | [7] -0.009 | [8] 0.027 | [9] 0.012 | Nexturastat A 0 | vemurafenib -0.041 | [10] -0.018 | [11] -0.078 | givinostat 0.008 | barasertib 0.002

C8orf33 isoform 2 (UniProt Q9H7E9)
inactive: IRAK-1-4 Inhibitor I -0.363 | ibrutinib 0.088 | [1] 0.088 | ralimetinib 0.132 | [2] 0.139 | [4] 0.146 | pinometostat 0.769 | [12] 0.078 | [5] -0.568 | [6] 0.02 | [7] -0.275 | [8] -0.183 | [9] -0.364 | Nexturastat A 0.3 | vemurafenib -0.139 | [10] 0.026 | [11] 0.221 | barasertib -0.049

CA1 (UniProt P00915)
inactive: IRAK-1-4 Inhibitor I 0.068 | ibrutinib -0.02 | [1] 0.003 | ralimetinib 0.017 | [2] -0.031 | [3] 0.119 | [4] -0.011 | pinometostat -0.006 | [5] -0.043 | [6] -0.028 | [7] -0.008 | [8] 0.03 | [9] 0.014 | Nexturastat A -0.051 | vemurafenib 0.048 | [10] 0.016 | [11] -0.039 | givinostat -0.021 | barasertib 0.008

C9orf72 (UniProt Q96LT7)
inactive: IRAK-1-4 Inhibitor I 0.016 | ibrutinib 0.022 | [1] -0.001 | ralimetinib 0.035 | [2] -0.051 | [3] 0.029 | [4] -0.019 | pinometostat 0.135 | [5] 0.048 | [6] 0.108 | [7] -0.009 | [8] 0.027 | [9] -0.014 | Nexturastat A -0.102 | vemurafenib -0.139 | [10] -0.038 | [11] 0.007 | givinostat -0.022 | barasertib 0.042

CAB39L (UniProt Q9H9S4)
inactive: IRAK-1-4 Inhibitor I 0.018 | ibrutinib 0.001 | [1] -0.126 | ralimetinib 0.057 | [2] -0.152 | [3] -0.024 | [4] 0.032 | pinometostat 0.102 | [5] -0.483 | [6] -0.142 | [7] -0.008 | [8] 0.004 | [9] -0.043 | Nexturastat A 0.003 | vemurafenib -0.013 | [10] -0.001 | givinostat -0.025 | barasertib 0.043

Source: the supplement of paper PMC10849652
